# Test results published in the supplement of paper PMC8728848.
# The other results are listed elsewhere or left out.
# B1: MXA PilAct-eGFP (Myxococcus xanthus), Q59589 (protein)
# chain: MRVSRFNPRNRGFTLIELMIVVAIIGILAAIAIPNFIKFQARSKQSEAKTNLKALYTAQKSFFSEKDRYSDFANEIGFAPERGNRYGYRVSAAAGDCEVRNAADLPVPAAGVPCISNDSFRFGANSAIDDPTPVVARFVPQGAAGWNTTLGVQPTIADCPNCNFFAGARGNADNEATFDDWVIAGFEGSGQVGPCSEAGNVASGTPYNTRNDVACDGAAQ
# Tests used:
# Experiment in all cases: glycan array binding signal (z-score within array); higher = stronger binding
# Details in all cases: glycan notation: IUPAC condensed, linker removed
# Gal(b1-4)Glc = biological target: Gal(b1-4)Glc
# Summary of the method: (§1)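 Arrays were curated from the Consortium for Functional Glycomics database, 3228 in total, and kept only where the protein sequence was available. Binding is expressed as a within-array Z-score. This score was averaged across arrays of the same protein sequence at different concentrations or buffers and across linkers, and negative values can be read as non-binding.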
# Gal(b1-4)Glc6S = biological target: Gal(b1-4)Glc6S
# Summary of the method: as §1
# Gal(b1-4)GlcNAc = biological target: Gal(b1-4)GlcNAc
# Summary of the method: as §1
# [1] = biological target: Gal(b1-4)GlcNAc(a1-6)Gal(b1-4)GlcNAc
# Summary of the method: as §1
# Gal(b1-4)GlcNAc(b1-2)Man = biological target: Gal(b1-4)GlcNAc(b1-2)Man
# Summary of the method: as §1
# [2] = biological target: Gal(b1-4)GlcNAc(b1-2)Man(a1-3)Man(b1-4)GlcNAc(b1-4)GlcNAc
# Summary of the method: as §1
# [3] = biological target: Gal(b1-4)GlcNAc(b1-2)Man(a1-3)[Gal(b1-4)GlcNAc(b1-2)Man(a1-6)]Man(b1-4)GlcNAc(b1-4)GlcNAc
# Summary of the method: as §1
# [4] = biological target: Gal(b1-4)GlcNAc(b1-2)Man(a1-3)[Gal(b1-4)GlcNAc(b1-2)Man(a1-6)]Man(b1-4)GlcNAc(b1-4)[Fuc(a1-6)]GlcNAc
# Summary of the method: as §1
# [5] = biological target: Gal(b1-4)GlcNAc(b1-2)Man(a1-3)[Gal(b1-4)GlcNAc(b1-2)Man(a1-6)][Gal(b1-4)GlcNAc(b1-4)]Man(b1-4)GlcNAc(b1-4)[Fuc(a1-6)]GlcNAc
# Summary of the method: as §1
# [6] = biological target: Gal(b1-4)GlcNAc(b1-2)Man(a1-3)[Gal(b1-4)GlcNAc(b1-2)Man(a1-6)][GlcNAc(b1-4)]Man(b1-4)GlcNAc(b1-4)[Fuc(a1-6)]GlcNAc
# Summary of the method: as §1
# [7] = biological target: Gal(b1-4)GlcNAc(b1-2)Man(a1-3)[GlcNAc(b1-2)Man(a1-6)]Man(b1-4)GlcNAc(b1-4)GlcNAc
# Summary of the method: as §1
# [8] = biological target: Gal(b1-4)GlcNAc(b1-2)Man(a1-3)[GlcNAc(b1-4)][Gal(b1-4)GlcNAc(b1-2)Man(a1-6)]Man(b1-4)GlcNAc(b1-4)GlcNAc
# Summary of the method: as §1
# [9] = biological target: Gal(b1-4)GlcNAc(b1-2)Man(a1-3)[Man(a1-6)]Man(b1-4)GlcNAc(b1-4)GlcNAc
# Summary of the method: as §1
# [10] = biological target: Gal(b1-4)GlcNAc(b1-2)Man(a1-6)Man(b1-4)GlcNAc(b1-4)GlcNAc
# Summary of the method: as §1
# [11] = biological target: Gal(b1-4)GlcNAc(b1-2)Man(a1-6)[GlcNAc(b1-2)Man(a1-3)]Man(b1-4)GlcNAc(b1-4)GlcNAc
# Summary of the method: as §1
# [12] = biological target: Gal(b1-4)GlcNAc(b1-2)Man(a1-6)[Man(a1-3)]Man(b1-4)GlcNAc(b1-4)GlcNAc
# Summary of the method: as §1
# [13] = biological target: Gal(b1-4)GlcNAc(b1-2)[Gal(b1-4)GlcNAc(b1-4)]Man(a1-3)[Gal(b1-4)GlcNAc(b1-2)Man(a1-6)]Man(b1-4)GlcNAc(b1-4)GlcNAc
# Summary of the method: as §1
# [14] = biological target: Gal(b1-4)GlcNAc(b1-2)[Gal(b1-4)GlcNAc(b1-4)]Man(a1-3)[Gal(b1-4)GlcNAc(b1-2)[Gal(b1-4)GlcNAc(b1-6)]Man(a1-6)]Man(b1-4)GlcNAc(b1-4)GlcNAc
# Summary of the method: as §1
# [15] = biological target: Gal(b1-4)GlcNAc(b1-2)[Gal(b1-4)GlcNAc(b1-4)]Man(a1-3)[GlcNAc(b1-4)][Gal(b1-4)GlcNAc(b1-2)Man(a1-6)]Man(b1-4)GlcNAc(b1-4)GlcNAc
# Summary of the method: as §1
# [16] = biological target: Gal(b1-4)GlcNAc(b1-2)[Gal(b1-4)GlcNAc(b1-4)]Man(a1-3)[GlcNAc(b1-4)][Gal(b1-4)GlcNAc(b1-2)[Gal(b1-4)GlcNAc(b1-6)]Man(a1-6)]Man(b1-4)GlcNAc(b1-4)GlcNAc
# Summary of the method: as §1
# [17] = biological target: Gal(b1-4)GlcNAc(b1-2)[Gal(b1-4)GlcNAc(b1-6)]Man(a1-6)[Gal(b1-4)GlcNAc(b1-2)Man(a1-3)]Man(b1-4)GlcNAc(b1-4)GlcNAc
# Summary of the method: as §1
# [18] = biological target: Gal(b1-4)GlcNAc(b1-2)[Gal(b1-4)GlcNAc(b1-6)]Man(a1-6)[Gal(b1-4)GlcNAc(b1-2)Man(a1-3)]Man(b1-4)GlcNAc(b1-4)[Fuc(a1-6)]GlcNAc
# Summary of the method: as §1
binder,measurement,setting,value
B1,glycan array binding signal (z-score),Gal(b1-4)Glc,-1.09
same,glycan array binding signal (z-score),Gal(b1-4)Glc6S,0.801
same,glycan array binding signal (z-score),Gal(b1-4)GlcNAc,-0.404
same,glycan array binding signal (z-score),[1],-0.795
same,glycan array binding signal (z-score),Gal(b1-4)GlcNAc(b1-2)Man,-0.783
same,glycan array binding signal (z-score),[2],1.07
same,glycan array binding signal (z-score),[3],1.44
same,glycan array binding signal (z-score),[4],-0.023
same,glycan array binding signal (z-score),[5],0.313
same,glycan array binding signal (z-score),[6],-0.143
same,glycan array binding signal (z-score),[7],0.083
same,glycan array binding signal (z-score),[8],-0.265
same,glycan array binding signal (z-score),[9],-0.783
same,glycan array binding signal (z-score),[10],-0.203
same,glycan array binding signal (z-score),[11],-0.132
same,glycan array binding signal (z-score),[12],-1.29
same,glycan array binding signal (z-score),[13],0.176
same,glycan array binding signal (z-score),[14],1.15
same,glycan array binding signal (z-score),[15],0.006
same,glycan array binding signal (z-score),[16],1.04
same,glycan array binding signal (z-score),[17],0.141
same,glycan array binding signal (z-score),[18],1.03

# Random excerpt: 2 records from the list.
binder,measurement,setting,value
B1,glycan array binding signal (z-score),[10],-0.203
same,glycan array binding signal (z-score),[16],1.04
